Consider ten sequences from article PMC12584617.

For part of these data: No signal at the amounts used counts as a negative. For part of these data: At least one verdict was read from the data and is not stated in words by the source. Tags and fusion partners may be left off the protein sequences shown. For part of these data: The exact form of at least one protein or probe is not confirmed. For part of these data: Weaker means in comparison with the reference protein, sequence or condition of that experiment.

Holding throughout (assay): EMSA
In data set [1] the test system is T1, NsrM (All0345) (Anabaena sp. strain PCC 7120).
T1 sequence (looked up): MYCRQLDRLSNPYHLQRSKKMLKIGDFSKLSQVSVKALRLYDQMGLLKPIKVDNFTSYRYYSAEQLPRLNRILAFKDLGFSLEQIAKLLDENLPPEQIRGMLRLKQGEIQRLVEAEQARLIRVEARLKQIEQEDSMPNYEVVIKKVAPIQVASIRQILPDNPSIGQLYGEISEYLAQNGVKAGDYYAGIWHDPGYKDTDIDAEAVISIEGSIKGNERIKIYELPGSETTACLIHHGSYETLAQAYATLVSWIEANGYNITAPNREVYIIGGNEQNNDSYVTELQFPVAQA
As to conditions: 10 mM Bis-Tris-HCl pH 7.5, 40 mM KCl, 0.1 mg/mL BSA, 5% glycerol, 50 ng DNA, 50-100 ng ifpkn22 competitor, 30 min room temperature, recombinant protein, residues 1-290, protein details: His-tag (pET28 NdeI/SalI), probe letters rebuilt from the primers and the genome.

The subject of data set [2] is T2, NsrX (Alr1976) (Anabaena sp. strain PCC 7120).
T2 sequence (looked up): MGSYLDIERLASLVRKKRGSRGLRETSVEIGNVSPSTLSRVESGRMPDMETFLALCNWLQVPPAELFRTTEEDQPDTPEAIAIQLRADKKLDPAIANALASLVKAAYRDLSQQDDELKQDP
As to conditions: 10 mM Bis-Tris-HCl pH 7.5, 40 mM KCl, 0.1 mg/mL BSA, 5% glycerol, 50 ng DNA, 50-100 ng ifpkn22 competitor, 30 min room temperature, recombinant protein, residues 1-121, protein details: His-tag (pET28 NdeI/SalI), probe letters rebuilt from the primers and the genome.

The next data set deals with T3, NtcA (UniProt P0A4U6).
T3 sequence (looked up, limits assumed): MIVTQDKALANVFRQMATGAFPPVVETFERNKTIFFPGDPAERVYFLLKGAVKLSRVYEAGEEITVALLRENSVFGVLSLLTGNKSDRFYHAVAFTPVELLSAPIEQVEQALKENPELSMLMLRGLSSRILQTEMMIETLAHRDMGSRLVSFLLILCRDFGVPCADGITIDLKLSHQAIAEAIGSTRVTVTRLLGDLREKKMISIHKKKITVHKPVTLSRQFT
As to conditions: 10 mM Bis-Tris-HCl pH 7.5, 40 mM KCl, 0.1 mg/mL BSA, 5% glycerol, 50 ng DNA, 50-100 ng ifpkn22 competitor, 30 min room temperature; recombinant protein; protein details: His-tag; probe letters rebuilt from the primers and the genome.

For the sequence “CACAATCCCATACCTTTGTAGCAATTTCAACTTCGCTAACTCAAATCGAATTTTATTAAGTTTGTCAGTTGTCAGTTGTCAGTTGTCAGTTGTCATTGGTCAATAGTCCATAGTTATTTTCTTCTATACCCCTACACCCTGTCTTTCTTCAATTTCATAACTGGTACATCTACTCCATATCTGAACTGAGATATACAAAACTAAACTGTGTAGTTATATAATATGATTATACTAAACCGACTAGTTTAGTCAATAGTTATTTATTGCTTTGGGCTATAAACTATTGACTGTAGGCTATGGACTCTATTGATAACG (double strand) [Pall0809-07 (devBCA)]”, the figures for the binding result in data set [1] and in data set [2] (100 uM Mn2+) were “no binding” and “binds”, respectively.

Consider “CGAAACAAAGTTGATGACACACCTGAAATATCGTAGATTCTAAACATTAGACAGTTTTGTAGTCTTTGTTACAGAACGTCTGGATTACAGGTAATATTAACCTTTCTTTCGACATCTGCACAAAAGGGAGAAAGTTAATCTCATAGGGGTCAACTTTGACATAAAATCCTTAAGTAACAGATAGATTGTTTTTGTGCCGAATCTATTTTTAATAGCACAAAAATTTACTGGTGCGTAGTGCAACCAAATTAATATCAAACCATAGATAGCAAAGATTGGGAGAAGAAGGAATGCGCGATGCAGTAACA (double strand) [PglnA]”, for which the binding result in data set [1] is “no binding”; in data set [2] (100 uM Mn2+), “binds”.

With “CGCTGGTTATGAAGCTGGTTTGTCATCTAGAATAGAAACCGATTGCTAAAGATTATTTCTTCCAACATTCCCGATGGAAAAGGGATTATAGGTTAGAAGCTATTAGCTAGTTTTTTTATCCAGAACCAACAAAGGACTTGGCTAGACTAACAGGATTCTGACAAATAATCAGGGAAACTACTAAAAAATCGGCAGAATACTTGTTATTTGATACTAGCAAGTCACCATGTAAACATTCATATCAAAACTACTCAAACACTATGAAGTCATGCGAATTATCTAAAAGGTGAATTACTTATATTTCTTATCAGCCAAGATAATACAGGTGTTTATAAACATTTGTAGTGGTTATACAAATGAGGGTGGTTTAGTGGTTTTTGCGGGAGGGTAAGGAGATTTGAGGG (double strand) [PhepK]”, the binding result in data set [1] (1 mM DTT) and in data set [2] (100 uM Mn2+) was “binds” throughout.

Turning to “CAACGATTTCAATACAAACCGAACCCACGGCGGCAAGACCCCTTAGCGTCGATGAATTTCAAAGTAACAAGCCCATGCCCAAGGTTTTGTAGTCTTTGTTACTCTAGCCACAATTACCTCTACGTTTTTTTATAACCTATGTTGGCAAAATGTTGAGTTTATGCCTTGTCCAGAGCGAAGTTGATAATATTATTAAATTTTTGTTATAGTTATTAAAAGTTCTTTTAGCTAAATGACTTACGTTTTAAAAACTAGCAATGTAACCCAACGTCATGAGCAAAAGAATACACAGAGTTAATTTTTGGC (double strand) [PnrrA]”, the binding result is “binds” in data set [1] (1 mM DTT) and “no binding” in data set [2].

As to “ACGCGGATATGGTACAGCAGTTAACTCTAGTGCTAGTTTATTCAGACCATGACGTAGTAGTTCTGGATATGGATACTTGCCATCTCGGCGGACAAACTCTGCTAAACCAATAACAAGACTGTTAAATTCGCTAATTTCCATAAGCGATCATCCTTCTTTGAGAGGATTTACTCAGCACCACGCTTTTTTCATTCATGATACATTTGTTGCACATACCATACAGGATTATTTATGGTGTGTCAACTAAGAAACGATTGATTTTTACGTGACGCAAGGATAGGAGAATGGGAAGTTATCTAGATATAGAACGCTTGGCGAGCCTAGT (double strand) [PnsrX]”, the binding result was “binds” in the data set with NtcA; “binds” in data set [2] (with or without 100 uM Mn2+ and 1 mM DTT (high affinity in all)).

Turning to “GGCATTTCTCTCATGATATAGAGTGTTTCTGTAGCTAAGGTATTCTTTGTAACTCACGAAGTTGAGGACGAAATTATTTGGAGTTTGACAAATCTGTCTGTAATCACACAGGTTATAAATCTTGCTGGTGAGAAAATATATATAGAGATAGGTTGATTAGTTTTAAAAAAGAGTATGCCAATATACTAAATTCGTATTTTTATAAATGATTTAAAAAAATAGAAAGTTATATTTTTTTGATGAATATTCGATAAATACTAATTCTTTAAGTCTATTAATTTGTTATTTATGTAATATCACTTACGTAATTAAAGATAATACTAGGGCTTCCTACATCCTAAATGTGATTTTCTTCAATTTTCATCCTCTAGGG (double strand) [PhepB distal]”, the binding result is “binds” in data set [1] (1 mM DTT) and “no binding” in data set [2].

For “GCGTTTAGTTTATCCGCAAAACCATAAAGCCAATACCCACAGTCGTCACAGGTTGTATTTAAGTTTATGTTAGGGTCTAGTGAAAGCCGAGACTATGAATTCAGCCGCAACAGCAACTATTCCAACCGCAAATCTTCTGGAAGAAAACTCTTTTGGTACAGAGGTCATCTTCAAACTGATTTACAAAGAGCTAAAACAGTTTACCAAAGCTTCCGACCAGAATTGTCATGATGTAGCAAATCGTATCACTACAGAAGTATACCGAATTTGCACCGAAAGTAAACGGATTCAAGCTTCTGGTGCTGTAGAAAGTTCAGCCATGACCCTAGCCAAGCATCGGCTACAACAATGCTTGAG (double strand) [PhetZ]”, the binding result in data set [1] is recorded as “no binding”; in data set [2] (100 uM Mn2+) it was “binds”.

For the sequence “TTGGCAAATCTTGCGGCAAGGAGCAGTAAGTTTAGAGTTTTAGGGCATAAAAAGGAGGAAAGTAGGGGAATATGGGGCAAAACGAAAAACTGAGAAAAGAACTATTTCCCTTTTTCTCCCTGCTCTCTACCTCTCTCCCCAGCCCGCAATCCCCACTTCCATTTTTTAGACAGTTATAATGTTGGTCTCCTGATTTTTAGGCAGTGAATTAGTGAAGAACTTGTTGGATCAAGCAGAACTGATGAACTAAAAAATAAGGAAACTGATTTTTATACTTTGTGGTCAATTTAACAAGTTAATAACTGTCTAAATATGAATTGGAGCAACTGGATATATCTAGGAGCCGGATTATTATTGGGGCTTGGTGTTCGTGGTTTATTTGCGCGGTCTACAAATGCCACTGCT (double strand) [PhepN]”, the binding result was “binds” in data set [1] (1 mM DTT) and “no binding” in data set [2].

“GTAATCGGAAGTGTTTTCATGGCGATCGCTCTGTTATTAAATCAAGATTTAAAATAAAAATTAGGGAAAAGGCTTTTCCTGTAGGTAAATGTATTTCTGAGAATATATTTACCTAAGTTCAGCAATTTACAGTTAAGTCAACACAGTTAGTCTTTATTTTTTATTTTCACGCCAATCTTTCCACTCAGGAGAGTTCTACACCGTCAGTGCTACTCTCCTGAGTGGAATAGTTTCATGATGTCAAACAGAAAAATTGTTCAACCGATTACTAGAAAACATTCTTTCAAAAATCAGGTTGCTTTTCTGTATCTTTCATTAACTTGGCTAATCTAACAGTACCTTAAGTACTACACGTATAGTTATTGGCTCAAACC (double strand) [PpatA]”: the binding result in data set [1] (1 mM DTT) is reported as “binds”; in data set [2], “no binding”.

On to “AAATGACACGGTAGTCGCTGTTTGTGAGAAAGTCGTTTGTCTTCAACAGTCCTACTGCTGAGGTTATCACTATGCTGCCCAGTAATATTTCTAGGCTCAGAGCAATCATAAGTCTTTTCCTCACACCTTATGTAGCTGTTGATGGTTGACTGTTGTCTGTTGACAGACTTGAAAGCCTTTTATGGTCAGAGTTTTGTCTTAGCTTGATGTCCTAATCTATCTGACTATGGCTATATATCAAAAATACTCAAAAAAGACTCTTGACTCTACCCTTAGGGCAGGGTGTGTACTGTAGACAGTTGGATAGATTAAGTAATCCATATCACCTACAGCGCAGT (double strand) [PnsrM]”, for which the binding result is reported as “binds” with NtcA; “binds” in data set [1] (1 mM DTT, metal-independent); “binds more weakly” in data set [1] (no DTT (binding required reducing conditions)).
